pIC50: −log10 of the molar value.
Target: Protein kinase C (PKC)

pIC50: 5.00 to 6.00
SMILES: CC/C(=C(\c1ccccc1)c1ccc(OCCN(C)C)cc1)c1ccccc1 [TAMOXIFEN]
